Experimental data taken from patent US20110212105A1.
Results are given in words; binding and its absence hold for the method and conditions named. A result given as binding can be weak or reduced; the word gives no strength.

Biological target: T1, human alpha-2 macroglobulin activated by methylamine treatment (human) (UniProt P01023)
T1 sequence: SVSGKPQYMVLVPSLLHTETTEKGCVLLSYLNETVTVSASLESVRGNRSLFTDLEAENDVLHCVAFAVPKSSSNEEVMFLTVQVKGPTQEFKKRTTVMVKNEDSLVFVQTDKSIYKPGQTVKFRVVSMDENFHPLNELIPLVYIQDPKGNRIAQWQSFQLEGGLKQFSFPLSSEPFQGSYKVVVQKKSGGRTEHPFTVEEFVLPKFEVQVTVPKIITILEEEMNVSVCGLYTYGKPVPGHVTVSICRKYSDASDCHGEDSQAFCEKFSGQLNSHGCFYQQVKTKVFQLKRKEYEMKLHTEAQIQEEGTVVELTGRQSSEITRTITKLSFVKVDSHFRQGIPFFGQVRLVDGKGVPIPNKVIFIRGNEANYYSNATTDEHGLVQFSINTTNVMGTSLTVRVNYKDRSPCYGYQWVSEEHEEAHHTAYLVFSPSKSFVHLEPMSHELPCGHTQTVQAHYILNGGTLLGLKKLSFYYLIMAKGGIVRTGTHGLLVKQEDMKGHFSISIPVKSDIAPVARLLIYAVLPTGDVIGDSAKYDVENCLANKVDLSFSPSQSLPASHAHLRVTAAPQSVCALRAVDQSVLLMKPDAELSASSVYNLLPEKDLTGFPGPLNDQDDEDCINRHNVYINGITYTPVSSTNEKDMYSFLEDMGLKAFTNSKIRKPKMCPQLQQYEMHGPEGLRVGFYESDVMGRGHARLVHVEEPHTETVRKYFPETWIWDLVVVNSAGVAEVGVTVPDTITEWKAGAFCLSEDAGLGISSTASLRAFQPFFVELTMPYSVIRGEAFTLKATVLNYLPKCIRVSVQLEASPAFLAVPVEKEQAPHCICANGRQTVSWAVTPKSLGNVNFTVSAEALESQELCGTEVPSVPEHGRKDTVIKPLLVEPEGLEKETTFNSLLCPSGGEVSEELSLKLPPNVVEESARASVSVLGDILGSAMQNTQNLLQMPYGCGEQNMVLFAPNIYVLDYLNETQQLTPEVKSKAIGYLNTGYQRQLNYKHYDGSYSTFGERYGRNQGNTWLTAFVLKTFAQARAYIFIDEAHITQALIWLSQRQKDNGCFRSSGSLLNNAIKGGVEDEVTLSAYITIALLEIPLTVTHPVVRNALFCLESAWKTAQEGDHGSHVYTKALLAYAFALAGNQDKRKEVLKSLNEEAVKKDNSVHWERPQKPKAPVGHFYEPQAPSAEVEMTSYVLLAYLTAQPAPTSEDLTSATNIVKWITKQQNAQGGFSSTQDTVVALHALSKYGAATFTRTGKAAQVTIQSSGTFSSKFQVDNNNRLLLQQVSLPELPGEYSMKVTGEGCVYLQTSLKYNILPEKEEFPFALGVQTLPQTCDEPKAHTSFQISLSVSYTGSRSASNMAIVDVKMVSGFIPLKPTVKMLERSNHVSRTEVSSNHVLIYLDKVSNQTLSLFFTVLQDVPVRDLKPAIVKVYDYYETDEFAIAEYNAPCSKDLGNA
Experiment: affinity chromatography of plasma fractions on immobilised MeNH2_A2M, specific elution with EDTA at pH 6, SDS-PAGE

Q: “α-chain of the A2MR receptor purified from human plasma (soluble A2MR)” was tested. Which binding did it give?
A: binds
